No constants are given. Whether binding was seen depends on the method and setting. In cells and extracts the contact can be indirect. Some results given as binding are weak or reduced against the parent protein; the word gives no strength.
Columns and labels:
[1] = molecular target: GPRC5B receptor, cell-free synthesized, Strep-tagged, transferred from nanodiscs (human) (UniProt Q9NZH0); experiment: pull-down; HEK293T cells transfected with GPRC5B-Myc or HA-IP, then incubated 16 h with 0.5 uM GPCR/nanodiscs; lysis in 25 mM Tris-HCl pH 7.4, 150 mM NaCl, 1% NP-40, 1 mM EDTA, 5% glycerol; cleared lysate on magnetic Strep-Tactin beads 2 h at 4 °C (Strep-tag of the transferred GPCR as bait); western blot (called Co-IP in the methods)
[2] = molecular target: prostacyclin receptor (IP), cell-free synthesized, Strep-tagged, transferred from nanodiscs (human) (UniProt P43119); experiment: as above

Sequences of proteins named here, by UniProt entry; tags and fusion partners are left off. A change or cut given only in a name is not applied to a line headed by its entry.
UniProt Q9NZH0: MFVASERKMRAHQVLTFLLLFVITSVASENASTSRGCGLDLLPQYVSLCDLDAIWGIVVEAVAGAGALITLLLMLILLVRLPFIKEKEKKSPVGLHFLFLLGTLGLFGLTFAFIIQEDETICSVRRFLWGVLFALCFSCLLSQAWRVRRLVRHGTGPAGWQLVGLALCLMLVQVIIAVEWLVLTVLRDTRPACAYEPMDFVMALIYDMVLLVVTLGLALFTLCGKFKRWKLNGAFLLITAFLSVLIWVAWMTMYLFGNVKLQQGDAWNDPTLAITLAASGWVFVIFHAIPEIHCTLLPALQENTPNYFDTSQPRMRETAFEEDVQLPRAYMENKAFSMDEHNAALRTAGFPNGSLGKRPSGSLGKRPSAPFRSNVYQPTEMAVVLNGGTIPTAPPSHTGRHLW
UniProt P43119: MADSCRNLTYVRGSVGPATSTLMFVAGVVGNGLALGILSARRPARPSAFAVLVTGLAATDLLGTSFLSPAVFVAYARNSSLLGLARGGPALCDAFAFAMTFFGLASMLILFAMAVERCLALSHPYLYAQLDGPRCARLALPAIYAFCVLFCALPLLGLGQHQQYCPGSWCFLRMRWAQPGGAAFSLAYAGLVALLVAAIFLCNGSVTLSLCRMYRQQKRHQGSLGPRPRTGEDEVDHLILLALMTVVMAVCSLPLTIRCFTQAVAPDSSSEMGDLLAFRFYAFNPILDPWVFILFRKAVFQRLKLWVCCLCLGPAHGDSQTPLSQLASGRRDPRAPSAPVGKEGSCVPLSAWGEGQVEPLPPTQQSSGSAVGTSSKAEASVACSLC

Substance	binding [1]	binding [2]
GPRC5B-Myc synthesized in transfected HEK293T cells (from UniProt Q9NZH0 29-403) (receptor)	binds	binds
HA-IP receptor synthesized in transfected HEK293T cells (from UniProt P43119 1-386)	binds	
